# No constants are given. Whether binding was seen depends on the method and setting. In cells and extracts the contact can be indirect. Here binding means that the protein was enriched with, or labelled near, the bait; the list need not be complete. Tags and fused reporters may be left off the sequences shown.
# The chains behind the UniProt entries cited, without tags or fusion partners. Residues count along the entry.
# UniProt Q8BMS1, residues 37-763: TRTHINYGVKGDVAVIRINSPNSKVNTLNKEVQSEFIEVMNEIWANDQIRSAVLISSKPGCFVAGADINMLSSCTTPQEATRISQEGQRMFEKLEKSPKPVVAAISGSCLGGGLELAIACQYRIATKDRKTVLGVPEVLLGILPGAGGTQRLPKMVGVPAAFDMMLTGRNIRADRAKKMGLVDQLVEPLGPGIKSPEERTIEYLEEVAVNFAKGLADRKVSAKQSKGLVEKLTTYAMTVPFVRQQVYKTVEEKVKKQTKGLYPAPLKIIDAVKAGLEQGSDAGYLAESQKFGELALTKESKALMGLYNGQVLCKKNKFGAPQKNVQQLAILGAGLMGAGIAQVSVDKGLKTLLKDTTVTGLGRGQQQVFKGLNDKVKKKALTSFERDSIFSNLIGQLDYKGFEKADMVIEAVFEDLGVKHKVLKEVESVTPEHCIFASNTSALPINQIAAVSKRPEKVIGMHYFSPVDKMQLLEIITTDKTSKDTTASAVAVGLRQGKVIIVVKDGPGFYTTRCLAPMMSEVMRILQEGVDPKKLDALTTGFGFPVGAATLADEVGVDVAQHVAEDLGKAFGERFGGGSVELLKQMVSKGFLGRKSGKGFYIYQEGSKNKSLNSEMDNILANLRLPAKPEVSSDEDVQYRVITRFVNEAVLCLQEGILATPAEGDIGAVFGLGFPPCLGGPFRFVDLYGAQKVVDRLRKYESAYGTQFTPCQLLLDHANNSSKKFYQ
# UniProt P62897: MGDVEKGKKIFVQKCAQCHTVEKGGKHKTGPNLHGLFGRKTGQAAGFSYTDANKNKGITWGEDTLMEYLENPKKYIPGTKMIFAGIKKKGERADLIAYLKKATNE
# UniProt P24369, residues 34-216: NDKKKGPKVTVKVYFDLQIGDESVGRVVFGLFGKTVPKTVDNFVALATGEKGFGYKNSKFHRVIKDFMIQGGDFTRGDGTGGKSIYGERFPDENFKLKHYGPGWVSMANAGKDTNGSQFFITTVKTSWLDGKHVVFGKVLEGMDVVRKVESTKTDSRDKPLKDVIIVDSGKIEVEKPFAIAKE
# UniProt P02089: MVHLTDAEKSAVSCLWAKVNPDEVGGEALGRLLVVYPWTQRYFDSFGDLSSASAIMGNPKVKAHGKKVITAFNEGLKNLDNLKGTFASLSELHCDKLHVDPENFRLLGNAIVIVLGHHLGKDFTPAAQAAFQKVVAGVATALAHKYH
# UniProt Q03265, residues 44-553: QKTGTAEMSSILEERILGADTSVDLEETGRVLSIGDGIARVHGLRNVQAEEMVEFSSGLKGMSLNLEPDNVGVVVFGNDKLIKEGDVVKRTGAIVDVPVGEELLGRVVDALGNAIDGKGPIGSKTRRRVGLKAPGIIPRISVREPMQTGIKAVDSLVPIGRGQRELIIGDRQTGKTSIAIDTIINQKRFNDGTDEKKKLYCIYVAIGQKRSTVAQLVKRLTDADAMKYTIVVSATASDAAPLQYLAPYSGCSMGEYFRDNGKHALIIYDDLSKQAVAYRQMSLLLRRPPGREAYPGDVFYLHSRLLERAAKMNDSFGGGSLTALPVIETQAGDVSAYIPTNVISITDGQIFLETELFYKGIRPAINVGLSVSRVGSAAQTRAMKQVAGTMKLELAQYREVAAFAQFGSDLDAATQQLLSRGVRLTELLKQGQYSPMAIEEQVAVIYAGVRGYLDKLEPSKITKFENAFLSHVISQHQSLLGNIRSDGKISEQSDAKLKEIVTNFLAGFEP
# UniProt P38647, residues 47-679: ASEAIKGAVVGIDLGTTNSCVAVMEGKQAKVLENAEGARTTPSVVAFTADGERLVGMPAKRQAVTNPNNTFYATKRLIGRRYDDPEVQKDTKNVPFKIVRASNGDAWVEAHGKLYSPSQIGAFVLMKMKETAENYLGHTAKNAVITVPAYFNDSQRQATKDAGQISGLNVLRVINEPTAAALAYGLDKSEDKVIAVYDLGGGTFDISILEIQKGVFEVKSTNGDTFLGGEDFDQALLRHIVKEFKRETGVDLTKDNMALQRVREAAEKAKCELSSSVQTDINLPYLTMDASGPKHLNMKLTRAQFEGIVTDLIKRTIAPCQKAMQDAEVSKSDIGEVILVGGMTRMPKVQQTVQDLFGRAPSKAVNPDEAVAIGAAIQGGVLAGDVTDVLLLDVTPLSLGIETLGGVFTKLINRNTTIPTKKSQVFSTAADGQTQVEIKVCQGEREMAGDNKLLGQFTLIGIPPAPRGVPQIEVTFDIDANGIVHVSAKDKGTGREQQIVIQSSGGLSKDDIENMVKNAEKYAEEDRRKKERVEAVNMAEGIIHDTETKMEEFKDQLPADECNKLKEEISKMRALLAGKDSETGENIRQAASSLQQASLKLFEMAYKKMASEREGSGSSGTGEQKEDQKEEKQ
# UniProt P20029, residues 20-655: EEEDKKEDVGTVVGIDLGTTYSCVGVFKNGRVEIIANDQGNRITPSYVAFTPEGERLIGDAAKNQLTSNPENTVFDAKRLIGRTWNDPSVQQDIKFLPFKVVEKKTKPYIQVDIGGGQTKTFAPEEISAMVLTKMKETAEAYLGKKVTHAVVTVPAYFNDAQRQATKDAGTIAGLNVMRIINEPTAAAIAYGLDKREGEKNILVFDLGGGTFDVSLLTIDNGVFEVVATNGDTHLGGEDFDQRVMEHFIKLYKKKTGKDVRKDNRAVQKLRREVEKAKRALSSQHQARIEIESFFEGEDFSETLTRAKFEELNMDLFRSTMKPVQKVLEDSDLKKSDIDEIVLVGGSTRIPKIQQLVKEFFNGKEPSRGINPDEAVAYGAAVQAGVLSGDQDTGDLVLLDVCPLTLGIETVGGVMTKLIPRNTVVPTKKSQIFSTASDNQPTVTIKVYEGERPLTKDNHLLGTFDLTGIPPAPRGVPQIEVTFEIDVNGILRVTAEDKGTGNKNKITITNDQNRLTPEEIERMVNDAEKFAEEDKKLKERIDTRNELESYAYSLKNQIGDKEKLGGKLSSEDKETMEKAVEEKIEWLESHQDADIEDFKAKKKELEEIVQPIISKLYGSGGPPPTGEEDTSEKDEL
# UniProt P56480, residues 47-529: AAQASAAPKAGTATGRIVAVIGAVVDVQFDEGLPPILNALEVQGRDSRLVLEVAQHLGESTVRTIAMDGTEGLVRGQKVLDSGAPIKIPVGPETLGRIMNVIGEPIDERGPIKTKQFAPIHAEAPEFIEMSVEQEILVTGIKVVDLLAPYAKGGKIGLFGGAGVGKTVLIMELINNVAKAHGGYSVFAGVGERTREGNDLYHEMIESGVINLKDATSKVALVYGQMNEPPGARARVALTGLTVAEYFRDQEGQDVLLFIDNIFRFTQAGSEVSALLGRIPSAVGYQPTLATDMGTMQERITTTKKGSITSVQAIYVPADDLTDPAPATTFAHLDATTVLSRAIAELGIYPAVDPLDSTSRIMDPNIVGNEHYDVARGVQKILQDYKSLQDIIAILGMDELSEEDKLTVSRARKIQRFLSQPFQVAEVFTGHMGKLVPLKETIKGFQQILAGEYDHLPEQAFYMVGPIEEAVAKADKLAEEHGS
# UniProt Q62446: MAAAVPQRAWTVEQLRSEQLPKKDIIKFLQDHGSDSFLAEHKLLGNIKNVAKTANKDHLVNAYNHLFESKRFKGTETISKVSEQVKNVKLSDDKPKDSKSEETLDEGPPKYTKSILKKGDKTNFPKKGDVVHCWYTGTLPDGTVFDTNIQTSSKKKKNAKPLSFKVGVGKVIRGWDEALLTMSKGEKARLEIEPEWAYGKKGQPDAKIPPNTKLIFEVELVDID
# UniProt P02088: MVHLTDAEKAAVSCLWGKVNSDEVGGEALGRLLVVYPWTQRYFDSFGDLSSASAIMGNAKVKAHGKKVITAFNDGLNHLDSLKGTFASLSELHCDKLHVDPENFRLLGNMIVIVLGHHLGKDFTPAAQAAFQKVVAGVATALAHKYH
# UniProt P01942: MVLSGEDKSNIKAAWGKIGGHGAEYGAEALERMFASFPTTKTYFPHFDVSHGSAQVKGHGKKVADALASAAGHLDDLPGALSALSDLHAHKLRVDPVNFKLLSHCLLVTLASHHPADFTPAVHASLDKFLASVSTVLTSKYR
# UniProt P62631: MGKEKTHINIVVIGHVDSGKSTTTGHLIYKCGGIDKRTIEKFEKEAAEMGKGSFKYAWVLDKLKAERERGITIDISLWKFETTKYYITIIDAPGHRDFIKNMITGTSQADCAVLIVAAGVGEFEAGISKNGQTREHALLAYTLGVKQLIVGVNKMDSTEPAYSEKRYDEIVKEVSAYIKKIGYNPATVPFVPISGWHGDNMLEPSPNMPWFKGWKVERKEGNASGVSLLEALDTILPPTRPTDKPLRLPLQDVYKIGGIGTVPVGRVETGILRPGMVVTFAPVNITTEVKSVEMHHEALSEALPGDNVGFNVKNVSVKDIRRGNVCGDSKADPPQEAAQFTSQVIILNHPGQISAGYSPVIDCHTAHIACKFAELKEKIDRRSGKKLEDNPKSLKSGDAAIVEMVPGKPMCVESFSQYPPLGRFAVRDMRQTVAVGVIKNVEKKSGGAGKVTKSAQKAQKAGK
# UniProt P63038, residues 27-573: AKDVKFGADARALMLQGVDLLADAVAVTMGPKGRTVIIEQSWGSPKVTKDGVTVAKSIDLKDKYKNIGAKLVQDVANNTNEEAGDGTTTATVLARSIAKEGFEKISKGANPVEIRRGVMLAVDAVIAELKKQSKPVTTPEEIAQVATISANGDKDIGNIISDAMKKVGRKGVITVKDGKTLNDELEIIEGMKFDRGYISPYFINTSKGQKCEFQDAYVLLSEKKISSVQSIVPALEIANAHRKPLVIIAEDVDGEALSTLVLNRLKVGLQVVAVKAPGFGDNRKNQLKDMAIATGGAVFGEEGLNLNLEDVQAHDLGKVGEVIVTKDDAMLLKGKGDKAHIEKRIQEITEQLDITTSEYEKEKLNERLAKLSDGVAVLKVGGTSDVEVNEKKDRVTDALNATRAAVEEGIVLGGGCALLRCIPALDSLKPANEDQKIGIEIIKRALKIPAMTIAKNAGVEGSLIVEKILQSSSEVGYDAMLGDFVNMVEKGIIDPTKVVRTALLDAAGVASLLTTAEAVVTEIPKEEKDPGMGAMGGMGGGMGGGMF
# T1: GATD3A:FLAG (glutamine amidotransferase-like class 1 domain-containing protein 3A, mouse, FLAG knock-in) (mouse) (UniProt Q9D172)
# T1 sequence: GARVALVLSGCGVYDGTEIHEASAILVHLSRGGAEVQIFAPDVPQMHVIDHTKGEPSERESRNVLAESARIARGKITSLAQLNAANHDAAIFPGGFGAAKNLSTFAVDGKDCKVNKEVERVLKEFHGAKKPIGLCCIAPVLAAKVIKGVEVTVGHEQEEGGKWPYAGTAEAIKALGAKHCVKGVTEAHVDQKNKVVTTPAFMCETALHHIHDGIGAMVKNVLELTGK
# Biological target: T1, GATD3A:FLAG (glutamine amidotransferase-like class 1 domain-containing protein 3A, mouse, FLAG knock-in) (mouse)
# Assay: affinity purification with mass spectrometry; magnetic anti-FLAG beads with lysate of Gatd3a^FLAG/FLAG mouse heart mitochondria (20 mM HEPES pH 7.4, 100 mM NaCl, 10% glycerol, 1 mM DTT, 2% digitonin, 2.5% NP-40), overnight at 4 °C; eluted with 0.2 mg/ml FLAG peptide; LC-MS/MS; performed three times
row,Molecule,binding
1,Transitional endoplasmic reticulum ATPase (from UniProt Q01853 1-806),binds
2,"Trifunctional enzyme subunit alpha, mitochondrial (from UniProt Q8BMS1 37-763)",binds
3,"Cytochrome c, somatic (from UniProt P62897 1-105)",binds
4,Peptidyl-prolyl cis-trans isomerase B (from UniProt P24369 34-216),binds
5,Hemoglobin subunit beta-2 (from UniProt P02089 1-147),binds
6,"ATP synthase subunit alpha, mitochondrial (from UniProt Q03265 44-553)",binds
7,SLIRP (mouse (endogenous in heart)),binds
8,"Stress-70 protein, mitochondrial (from UniProt P38647 47-679)",binds
9,Endoplasmic reticulum chaperone BiP (from UniProt P20029 20-655),binds
10,"ATP synthase subunit beta, mitochondrial (from UniProt P56480 47-529)",binds
11,Peptidyl-prolyl cis-trans isomerase FKBP3 (from UniProt Q62446 1-224),binds
12,Hemoglobin subunit beta-1 (from UniProt P02088 1-147),binds
13,Hemoglobin subunit alpha (from UniProt P01942 1-142),binds
14,Elongation factor 1-alpha 2 (from UniProt P62631 1-463),binds
15,"60 kDa heat shock protein, mitochondrial (from UniProt P63038 27-573)",binds
16,"Malate dehydrogenase, mitochondrial (protein, UniProt P08249 25-338) AKVAVLGASGGIGQPLSLLLKNSPLVSRLTLYDIAHTPGVAADLSHIETRANVKGYLGPEQLPDCLKGCDVVVIPAGVPRKPGMTRDDLFNTNATIVATLTAACAQHCPEAMVCIIANPVNSTIPITAEVFKKHGVYNPNKIFGVTTLDIVRANTFVAELKGLDPARVNVPVIGGHAGKTIIPLISQCTPKVDFPQDQLATLTGRIQEAGTEVVKAKAGAGSATLSMAYAGARFVFSLVDAMNGKEGVVECSFVQSKETECTYFSTPLLLGKKGLEKNLGIGKITPFEEKMIAEAIPELKASIKKGEDFVKNMK",binds
17,"Long-chain-specific acyl-CoA dehydrogenase, mitochondrial (protein, UniProt P51174 31-430) GAEARLETPSAKKLTDVGIRRIFSSEHDIFRESVRKFFQEEVIPHHTEWEKAGEVSREVWEKAGKQGLLGINIAEKHGGIGGDLLSTAVTWEEQAYSNCTGPGFSLHSDIVMPYIANYGTKEQIEKFIPQMTAGKCIGAIAMTEPGAGSDLQGVRTNAKRSGSDWILNGSKVFITNGWLSDLVIVVAVTNREARSPAHGISLFLVENGMKGFIKGRKLHKMGMKAQDTAELFFEDVRLPANALLGEENKGFYYLMQELPQERLLIAELAISACEFMFEETRNYVKQRKAFGKTVAHIQTVQHKLAELKTHICVTRAFVDSCLQLHETKRLDSGSASMAKYWASELQNSVAYECVQLHGGWGYMWEYPIAKAYVDARVQPIYGGTNEIMKELIARQIVSDS",binds
18,"Aconitate hydratase, mitochondrial (protein, UniProt Q99KI0 28-780) QRAKVAMSHFEPSEYIRYDLLEKNINIVRKRLNRPLTLSEKIVYGHLDDPANQEIERGKTYLRLRPDRVAMQDATAQMAMLQFISSGLPKVAVPSTIHCDHLIEAQVGGEKDLRRAKDINQEVYNFLATAGAKYGVGFWRPGSGIIHQIILENYAYPGVLLIGTDSHTPNGGGLGGICIGVGGADAVDVMAGIPWELKCPKVIGVKLTGSLSGWTSPKDVILKVAGILTVKGGTGAIVEYHGPGVDSISCTGMATICNMGAEIGATTSVFPYNHRMKKYLSKTGRTDIANLAEEFKDHLVPDPGCQYDQVIEINLNELKPHINGPFTPDLAHPVADVGTVAEKEGWPLDIRVGLIGSCTNSSYEDMGRSAAVAKQALAHGLKCKSQFTITPGSEQIRATIERDGYAQILRDVGGIVLANACGPCIGQWDRKDIKKGEKNTIVTSYNRNFTGRNDANPETHAFVTSPEIVTALAIAGTLKFNPETDFLTGKDGKKFKLEAPDADELPRSDFDPGQDTYQHPPKDSSGQRVDVSPTSQRLQLLEPFDKWDGKDLEDLQILIKVKGKCTTDHISAAGPWLKFRGHLDNISNNLLIGAINIENGKANSVRNAVTQEFGPVPDTARYYKKHGIRWVVIGDENYGEGSSREHAALEPRHLGGRAIITKSFARIHETNLKKQGLLPLTFADPSDYNKIHPVDKLTIQGLKDFAPGKPLKCVIKHPNGTQETILLNHTFNETQIEWFRAGSALNRMKELQQ",binds
19,"Trifunctional enzyme subunit beta, mitochondrial (protein, UniProt Q99JY0 35-475) SAPAVQTKSKKTLAKPNMKNIVVVEGVRIPFLLSGTSYKDLMPHDLARAALSGLLHRTNIPKDVVDYIIFGTVIQEVKTSNVAREAALGAGFSDKTPAHTVTMACISSNQAMTTAVGLIASGQCDVVVAGGVELMSDVPIRHSRNMRKMMLDLNKAKTLGQRLSLLSKFRLNFLSPELPAVAEFSTNETMGHSADRLAAAFAVSRMEQDEYALRSHSLAKKAQDEGHLSDIVPFKVPGKDTVTKDNGIRPSSLEQMAKLKPAFIKPYGTVTAANSSFLTDGASAMLIMSEDRALAMGYKPKAYLRDFIYVSQDPKDQLLLGPTYATPKVLEKAGLTMNDIDAFEFHEAFSGQILANFKAMDSDWFAQNYMGRKTKVGSPPLEKFNIWGGSLSLGHPFGATGCRLVMAAANRLRKDGGQYALVAACAAGGQGHAMIVEAYPK",binds
20,"ADP/ATP translocase 1 (protein, UniProt P48962 1-298) MGDQALSFLKDFLAGGIAAAVSKTAVAPIERVKLLLQVQHASKQISAEKQYKGIIDCVVRIPKEQGFLSFWRGNLANVIRYFPTQALNFAFKDKYKQIFLGGVDRHKQFWRYFAGNLASGGAAGATSLCFVYPLDFARTRLAADVGKGSSQREFNGLGDCLTKIFKSDGLKGLYQGFSVSVQGIIIYRAAYFGVYDTAKGMLPDPKNVHIIVSWMIAQSVTAVAGLVSYPFDTVRRRMMMQSGRKGADIMYTGTLDCWRKIAKDEGANAFFKGAWSNVLRGMGGAFVLVLYDEIKKYV",binds
21,"Propionyl-CoA carboxylase alpha chain, mitochondrial (protein, UniProt Q91ZA3 49-724) SVEYEPKEKTFDKILIANRGEIACRVIKTCKKMGIKTVAIHSDVDASSVHVKMADEAVCVGPAPTSKSYLNMDAIMEAIKKTRAQAVHPGYGFLSENKEFAKRLAAEDVTFIGPDTHAIQAMGDKIESKLLAKRAKVNTIPGFDGVVKDADEAVRIAREIGYPVMIKASAGGGGKGMRIAWDDEETRDGFRFSSQEAASSFGDDRLLIEKFIDNPRHIEIQVLGDKHGNALWLNERECSIQRRNQKVVEEAPSIFLDPETRQAMGEQAVALAKAVKYSSAGTVEFLVDSQKNFYFLEMNTRLQVEHPVTECITGLDLVQEMILVAKGYPLRHKQEDIPISGWAVECRVYAEDPYKSFGLPSIGRLSQYQEPIHLPGVRVDSGIQPGSDISIYYDPMISKLVTYGSDRAEALKRMEDALDNYVIRGVTHNIPLLREVIINTRFVKGDISTKFLSDVYPDGFKGHTLTLSERNQLLAIASSVFVASQLRAQRFQEHSRVPVIRPDVAKWELSVKLHDEDHTVVASNNGPAFTVEVDGSKLNVTSTWNLASPLLSVNVDGTQRTVQCLSREAGGNMSIQFLGTVYKVHILTKLAAELNKFMLEKVPKDTSSTLCSPMPGVVVAVSVKPGDMVAEGQEICVIEAMKMQNSMTAGKMGKVKLVHCKAGDTVGEGDLLVELE",binds
22,"ADP/ATP Translocase 2 (protein, UniProt P51881 1-298) MTDAAVSFAKDFLAGGVAAAISKTAVAPIERVKLLLQVQHASKQITADKQYKGIIDCVVRIPKEQGVLSFWRGNLANVIRYFPTQALNFAFKDKYKQIFLGGVDKRTQFWRYFAGNLASGGAAGATSLCFVYPLDFARTRLAADVGKAGAEREFKGLGDCLVKIYKSDGIKGLYQGFNVSVQGIIIYRAAYFGIYDTAKGMLPDPKNTHIFISWMIAQSVTAVAGLTSYPFDTVRRRMMMQSGRKGTDIMYTGTLDCWRKIARDEGSKAFFKGAWSNVLRGMGGAFVLVLYDEIKKYT",binds
23,"Mitochondrial 10-formyltetrahydrofolate dehydrogenase (protein, UniProt Q8K009 1-923) MLWRGSQALRHFSTSRVYFKNKLKLALIGQSLFGQEVYSQLLKEGHRVVGVFTVPDKDGKADPLALAAEKDGTPVFKFPRWRLKGKTIKEVAEAYQSVGAELNVLPFCTQFIPMDVIDSPKHGSIIYHPSLLPRHRGASAINWTLIMGDKKAGFSVFWADDGLDTGPILLQRSCDVKPNDTVDSLYNRFLFPEGIKAMVEAVQLIADGKAPRTPQPEEGATYEGIQKKENAEVSWDQPAEGLHNWIRGHDKVPGAWAEINGQMVTFYGSSLLTSSVPSGEPLDIRGAKKPGLVTKNGLVLFGNDGKALMVRNLQFEDGKMIPASQYFSAGETSVVELTAEELKVAETIKVIWARILSNTPVIEDSTDFFKSGASSMDVVRLVEEIRQSCGGLQLQNEDVYMATKFGDFIQKVVRRLRGEDEEAEMVVDYVSKEVNGMTVKIPYQCFINGQFVDAEDGETYATVNPTDGTTICRVSYASLADVDRAVAAAKDAFENGEWGRMNARDRGRLMYRLADLMEENQEELATIEALDSGAVYTLALKTHIGMSVQTFRYFAGWCDKIQGSTIPINQARPNYNLTFTKKEPLGACAIIIPWNYPLMMLAWKSAACLAAGNTLVLKPAQVTPLTALKFAELTVKAGFPKGVINIIPGSGGVAGQRLSQHPDIRKLGFTGSTSVGKQIMKSCAVSNLKKVSLELGGKSPLIIFSDCDLEKAVRMGMGAVFFNKGENCIAAGRLFVEEAIHDEFVTRVVEEIKKMKIGDPLDRSTDHGPQNHRAHLEKLLQYCETGVQEGATLVYGGRQVQRPGFFMEPTVFTGVEDHMYLAKEESFGPIMVISKFQNGDIDGVLQRANNTEYGLASGVFTRDINKAMYVSDKLEAGTVFINTYNKTDVAAPFGGMKQSGFGKDLGEEALNEYLKIKTVTLEY",binds
